Laboratory results taken from patent publication US20190142893A1, “Electron, Radical, or Reactive Oxygen Species-Scavenging Agent Based Therapy of Inborn Errors of Fatty Acid Oxidation and Oxidative Phosphorylation” (University of Pittsburgh- Of the Commonwealth System of …, priority 2016, published 2019).
At least one structure is not confirmed: it was looked up by name or label, or the drawing left a doubt.

Tested on: VLCAD deficient fibroblasts (Fb671, Fb773, Fb834, Fb833)
Assay: Superoxide production (MitoSOX Red, flow cytometry) in VLCAD deficient fibroblasts
Type: cell-based, human
Settings: patient cells, media without glucose 48 h, after 24 h of treatment; FIGS. 27 and 28
Description: ROS generation: control and patient fibroblasts were cultivated in normal media or without glucose for 48 hours, then incubated for 15 min with MitoSox Red (Life Technologies). Fluorescence was evaluated by flow cytometry.
Cells were grown in Dulbecco's Modified Eagle Medium (DMEM), Corning Life Sciences, Manassas, Va., containing high glucose levels or in DMEM devoid of glucose for 48-72 h. Both media were supplemented with glutamine, 10% fetal bovine serum, 4 mM glutamine, 100 IU penicillin and 100 μg/mL streptomycin, Corning Life Sciences, Manassas, Va.
Cells were treated with different compounds in different concentrations 24 or 48 h before the assays. The compounds used were N-acetylcysteine (1 mM), bezafibrate (600 μM), resveratrol (75 μM), MiloQ (200 nM), trolox (1 mM) and JP4-039 (40 and 200 nM).
Cell suspension containing 1×10^5 cells per mL were incubated for 25 min at 37° C. with 150 nM Mitotracker Green, Invitrogen, Grand Island, N.Y., for mitochondrial mass evaluation or for 15 min at 37° C. with 5 μM MitoSOX Red, Invitrogen, Grand Island, N.Y., for superoxide production measurement. After incubation, 10,000 cells samples were analyzed in a Becton Dickinson FACSAria II flow cytometer, BD Biosciences, San Jose, Calif.

Compound: CC(C)(Oc1ccc(CCNC(=O)c2ccc(Cl)cc2)cc1)C(=O)O [bezafibrate]
- Superoxide generation (increased levels in VLCAD deficient cells): JP4-039 was the only antioxidant able to decrease superoxide generation
